# In the supplement of paper PMC8728848:
# The other results are listed elsewhere or left out.
# B1: HHL-2 (Homo sapiens), P07307 (protein)
# chain: MAKDFQDIQQLSSEENDHPFHQGEGPGTRRLNPRRGNPFLKGPPPAQPLAQRLCSMVCFSLLALSFNILLLVVICVTGSQSEGHRGAQLQAELRSLKEAFSNFSSSTLTEVQAISTHGGSVGDKITSLGAKLEKQQQDLKADHDALLFHLKHFPVDLRFVACQMELLHSNGSQRTCCPVNWVEHQGSCYWFSHSGKAWAEAEKYCQLENAHLVVINSWEEQKFIVQHTNPFNTWIGLTDSDGSWKWVDGTDYRHNYKNWAVTQPDNWHGHELGGSEDCVEVQPDGRWNDDFCLQVYRWVCEKRRNATGEVA
# Assays:
# Experiment in all cases: glycan array binding signal (z-score within array); higher = stronger binding
# Conditions in all cases: glycan notation: IUPAC condensed, linker removed
# [1] = biological target: Neu5Ac(a2-3)Gal(b1-4)[Fuc(a1-3)]GlcNAc
# Procedure, shortened: (§1)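 The binding signal is a Z-score computed within each array and averaged over linkers. Arrays of the same protein sequence at different concentrations or buffers were also averaged together. Data originate from 3228 arrays in the Consortium for Functional Glycomics database, kept only where the protein sequence was available.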
# [2] = biological target: Neu5Ac(a2-3)Gal(b1-4)[Fuc(a1-3)]GlcNAc(b1-3)Gal
# Procedure, shortened: as §1
# [3] = biological target: Neu5Ac(a2-3)Gal(b1-4)[Fuc(a1-3)]GlcNAc(b1-3)Gal(b1-4)GlcNAc
# Procedure, shortened: as §1
# [4] = biological target: Neu5Ac(a2-3)Gal(b1-4)[Fuc(a1-3)]GlcNAc(b1-3)Gal(b1-4)[Fuc(a1-3)]GlcNAc(b1-3)Gal(b1-4)[Fuc(a1-3)]GlcNAc
# Procedure, shortened: as §1
# [5] = biological target: Neu5Ac(a2-3)Gal(b1-4)[Fuc(a1-3)]GlcNAc(b1-6)[Gal(b1-3)]GalNAc
# Procedure, shortened: as §1
# [6] = biological target: Neu5Ac(a2-3)Gal(b1-4)[Fuc(a1-3)]GlcNAc(b1-6)[Neu5Ac(a2-3)Gal(b1-3)]GalNAc
# Procedure, shortened: as §1
# [7] = biological target: Neu5Ac(a2-3)Gal(b1-4)[Fuc(a1-3)]GlcNAc6S
# Procedure, shortened: as §1
# [8] = biological target: Neu5Ac(a2-3)Gal6S(b1-4)GlcNAc
# Procedure, shortened: as §1
# [9] = biological target: Neu5Ac(a2-3)Gal6S(b1-4)[Fuc(a1-3)]GlcNAc
# Procedure, shortened: as §1
# Neu5Ac(a2-3)GalNAc = biological target: Neu5Ac(a2-3)GalNAc
# Procedure, shortened: as §1
# [10] = biological target: Neu5Ac(a2-3)GalNAc(b1-4)GlcNAc
# Procedure, shortened: as §1
# [11] = biological target: Neu5Ac(a2-3)[GalNAc(b1-4)]Gal(b1-4)Glc
# Procedure, shortened: as §1
# [12] = biological target: Neu5Ac(a2-3)[GalNAc(b1-4)]Gal(b1-4)GlcNAc
# Procedure, shortened: as §1
# [13] = biological target: Neu5Ac(a2-3)[Neu5Ac(a2-6)]GalNAc
# Procedure, shortened: as §1
# Neu5Ac(a2-6)Gal = biological target: Neu5Ac(a2-6)Gal
# Procedure, shortened: as §1
# Neu5Ac(a2-6)Gal(b1-4)Glc = biological target: Neu5Ac(a2-6)Gal(b1-4)Glc
# Procedure, shortened: as §1
# [14] = biological target: Neu5Ac(a2-6)Gal(b1-4)GlcNAc
# Procedure, shortened: as §1
# [15] = biological target: Neu5Ac(a2-6)Gal(b1-4)GlcNAc(b1-2)Man(a1-3)Man(b1-4)GlcNAc(b1-4)GlcNAc
# Procedure, shortened: as §1
# [16] = biological target: Neu5Ac(a2-6)Gal(b1-4)GlcNAc(b1-2)Man(a1-3)[Gal(b1-4)GlcNAc(b1-2)Man(a1-6)]Man(b1-4)GlcNAc(b1-4)GlcNAc
# Procedure, shortened: as §1
# [17] = biological target: Neu5Ac(a2-6)Gal(b1-4)GlcNAc(b1-2)Man(a1-3)[GlcNAc(b1-2)Man(a1-6)]Man(b1-4)GlcNAc(b1-4)GlcNAc
# Procedure, shortened: as §1
# [18] = biological target: Neu5Ac(a2-6)Gal(b1-4)GlcNAc(b1-2)Man(a1-3)[GlcNAc(b1-2)Man(b1-4)GlcNAc(b1-2)Man(a1-6)]Man(b1-4)GlcNAc(b1-4)GlcNAc
# Procedure, shortened: as §1
# [19] = biological target: Neu5Ac(a2-6)Gal(b1-4)GlcNAc(b1-2)Man(a1-3)[Man(a1-6)]Man(b1-4)GlcNAc(b1-4)GlcNAc
# Procedure, shortened: as §1
# [20] = biological target: Neu5Ac(a2-6)Gal(b1-4)GlcNAc(b1-2)Man(a1-3)[Neu5Ac(a2-6)Gal(b1-4)GlcNAc(b1-2)Man(a1-6)]Man(b1-4)GlcNAc(b1-4)GlcNAc
# Procedure, shortened: as §1
# [21] = biological target: Neu5Ac(a2-6)Gal(b1-4)GlcNAc(b1-2)Man(a1-6)Man(b1-4)GlcNAc(b1-4)GlcNAc
# Procedure, shortened: as §1
# [22] = biological target: Neu5Ac(a2-6)Gal(b1-4)GlcNAc(b1-2)Man(a1-6)[Gal(b1-4)GlcNAc(b1-2)Man(a1-3)]Man(b1-4)GlcNAc(b1-4)GlcNAc
# Procedure, shortened: as §1
# [23] = biological target: Neu5Ac(a2-6)Gal(b1-4)GlcNAc(b1-2)Man(a1-6)[GlcNAc(b1-2)Man(a1-3)]Man(b1-4)GlcNAc(b1-4)GlcNAc
# Procedure, shortened: as §1
# [24] = biological target: Neu5Ac(a2-6)Gal(b1-4)GlcNAc(b1-2)Man(a1-6)[Man(a1-3)]Man(b1-4)GlcNAc(b1-4)GlcNAc
# Procedure, shortened: as §1
# [25] = biological target: Neu5Ac(a2-6)Gal(b1-4)GlcNAc(b1-3)Gal(b1-3)GlcNAc
# Procedure, shortened: as §1
# [26] = biological target: Neu5Ac(a2-6)Gal(b1-4)GlcNAc(b1-3)Gal(b1-4)GlcNAc
# Procedure, shortened: as §1
# [27] = biological target: Neu5Ac(a2-6)Gal(b1-4)GlcNAc(b1-3)Gal(b1-4)GlcNAc(b1-3)Gal(b1-4)GlcNAc
# Procedure, shortened: as §1
# [28] = biological target: Neu5Ac(a2-6)Gal(b1-4)GlcNAc(b1-3)Gal(b1-4)[Fuc(a1-3)]GlcNAc(b1-3)Gal(b1-4)[Fuc(a1-3)]GlcNAc
# Procedure, shortened: as §1
# [29] = biological target: Neu5Ac(a2-6)Gal(b1-4)GlcNAc(b1-3)GalNAc
# Procedure, shortened: as §1
# [30] = biological target: Neu5Ac(a2-6)Gal(b1-4)GlcNAc6S
# Procedure, shortened: as §1
# Neu5Ac(a2-6)GalNAc = biological target: Neu5Ac(a2-6)GalNAc
# Procedure, shortened: as §1
# [31] = biological target: Neu5Ac(a2-6)GalNAc(b1-4)GlcNAc
# Procedure, shortened: as §1
# [32] = biological target: Neu5Ac(a2-6)GlcNAc(b1-4)GlcNAc
# Procedure, shortened: as §1
# [33] = biological target: Neu5Ac(a2-6)GlcNAc(b1-4)GlcNAc(b1-4)GlcNAc
# Procedure, shortened: as §1
# Neu5Ac(a2-8)Neu5Ac = biological target: Neu5Ac(a2-8)Neu5Ac
# Procedure, shortened: as §1
# [34] = biological target: Neu5Ac(a2-8)Neu5Ac(a2-3)Gal(b1-4)Glc
# Procedure, shortened: as §1
# [35] = biological target: Neu5Ac(a2-8)Neu5Ac(a2-3)[GalNAc(b1-4)]Gal(b1-4)Glc
# Procedure, shortened: as §1
# [36] = biological target: Neu5Ac(a2-8)Neu5Ac(a2-8)Neu5Ac
# Procedure, shortened: as §1
# [37] = biological target: Neu5Ac(a2-8)Neu5Ac(a2-8)Neu5Ac(a2-3)Gal(b1-4)Glc
# Procedure, shortened: as §1
# [38] = biological target: Neu5Ac(a2-8)Neu5Ac(a2-8)Neu5Ac(a2-3)[GalNAc(b1-4)]Gal(b1-4)Glc
# Procedure, shortened: as §1
# [39] = biological target: Neu5Ac(a2-8)Neu5Ac(a2-8)Neu5Ac(a2-8)Neu5Ac(a2-3)[GalNAc(b1-4)]Gal(b1-4)Glc
# Procedure, shortened: as §1
# [40] = biological target: Neu5Ac(b2-6)Gal(b1-4)GlcNAc
# Procedure, shortened: as §1
# Neu5Ac(b2-6)GalNAc = biological target: Neu5Ac(b2-6)GalNAc
# Procedure, shortened: as §1
# [41] = biological target: Neu5Ac9Ac(a2-3)Gal(b1-3)GlcNAc
# Procedure, shortened: as §1
# [42] = biological target: Neu5Ac9Ac(a2-3)Gal(b1-4)GlcNAc
# Procedure, shortened: as §1
# [43] = biological target: Neu5Ac9Ac(a2-6)Gal(b1-4)GlcNAc
# Procedure, shortened: as §1
# [44] = biological target: Neu5Gc(a2-3)Gal(b1-3)GlcNAc
# Procedure, shortened: as §1
# [45] = biological target: Neu5Gc(a2-3)Gal(b1-3)[Fuc(a1-4)]GlcNAc
# Procedure, shortened: as §1
# Neu5Gc(a2-3)Gal(b1-4)Glc = biological target: Neu5Gc(a2-3)Gal(b1-4)Glc
# Procedure, shortened: as §1
# [46] = biological target: Neu5Gc(a2-3)Gal(b1-4)GlcNAc
# Procedure, shortened: as §1
# [47] = biological target: Neu5Gc(a2-3)Gal(b1-4)[Fuc(a1-3)]GlcNAc
# Procedure, shortened: as §1
# [48] = biological target: Neu5Gc(a2-6)Gal(b1-4)GlcNAc
# Procedure, shortened: as §1
# Neu5Gc(a2-6)GalNAc = biological target: Neu5Gc(a2-6)GalNAc
# Procedure, shortened: as §1
# [49] = biological target: Neu5Gc(b2-6)Gal(b1-4)GlcNAc
# Procedure, shortened: as §1
binder,measurement,setting,value
B1,glycan array binding signal (z-score),[1],-0.312
same,glycan array binding signal (z-score),[2],1.89
same,glycan array binding signal (z-score),[3],0.901
same,glycan array binding signal (z-score),[4],-0.56
same,glycan array binding signal (z-score),[5],-0.925
same,glycan array binding signal (z-score),[6],-0.303
same,glycan array binding signal (z-score),[7],0.012
same,glycan array binding signal (z-score),[8],-0.403
same,glycan array binding signal (z-score),[9],-0.612
same,glycan array binding signal (z-score),Neu5Ac(a2-3)GalNAc,-0.823
same,glycan array binding signal (z-score),[10],-0.145
same,glycan array binding signal (z-score),[11],0.461
same,glycan array binding signal (z-score),[12],0.969
same,glycan array binding signal (z-score),[13],-0.847
same,glycan array binding signal (z-score),Neu5Ac(a2-6)Gal,0.123
same,glycan array binding signal (z-score),Neu5Ac(a2-6)Gal(b1-4)Glc,-0.271
same,glycan array binding signal (z-score),[14],0.623
same,glycan array binding signal (z-score),[15],0.098
same,glycan array binding signal (z-score),[16],0.34
same,glycan array binding signal (z-score),[17],-0.424
same,glycan array binding signal (z-score),[18],0.261
same,glycan array binding signal (z-score),[19],0.323
same,glycan array binding signal (z-score),[20],2.4
same,glycan array binding signal (z-score),[21],-0.311
same,glycan array binding signal (z-score),[22],-0.429
same,glycan array binding signal (z-score),[23],-0.868
same,glycan array binding signal (z-score),[24],-0.826
same,glycan array binding signal (z-score),[25],-0.096
same,glycan array binding signal (z-score),[26],-0.539
same,glycan array binding signal (z-score),[27],-0.717
same,glycan array binding signal (z-score),[28],0.462
same,glycan array binding signal (z-score),[29],1.42
same,glycan array binding signal (z-score),[30],2.18
same,glycan array binding signal (z-score),Neu5Ac(a2-6)GalNAc,-0.605
same,glycan array binding signal (z-score),[31],-0.568
same,glycan array binding signal (z-score),[32],-1.01
same,glycan array binding signal (z-score),[33],-0.816
same,glycan array binding signal (z-score),Neu5Ac(a2-8)Neu5Ac,-0.55
same,glycan array binding signal (z-score),[34],-0.127
same,glycan array binding signal (z-score),[35],0.053
same,glycan array binding signal (z-score),[36],0.786
same,glycan array binding signal (z-score),[37],3.59
same,glycan array binding signal (z-score),[38],0.412
same,glycan array binding signal (z-score),[39],0.721
same,glycan array binding signal (z-score),[40],0.174
same,glycan array binding signal (z-score),Neu5Ac(b2-6)GalNAc,-0.379
same,glycan array binding signal (z-score),[41],-0.492
same,glycan array binding signal (z-score),[42],0.165
same,glycan array binding signal (z-score),[43],-0.403
same,glycan array binding signal (z-score),[44],0.506
same,glycan array binding signal (z-score),[45],0.838
same,glycan array binding signal (z-score),Neu5Gc(a2-3)Gal(b1-4)Glc,1.22
same,glycan array binding signal (z-score),[46],-0.694
same,glycan array binding signal (z-score),[47],0.113
same,glycan array binding signal (z-score),[48],0.3
same,glycan array binding signal (z-score),Neu5Gc(a2-6)GalNAc,-0.354
same,glycan array binding signal (z-score),[49],-0.431

# Shown as tab-separated lines: part of the list above.
binder	measurement	setting	value
B1	glycan array binding signal (z-score)	[6]	-0.303
same	glycan array binding signal (z-score)	[14]	0.623
